Experimental data reported in PMC12013442.

Amino acid sequences for entries named in this document (tags omitted). Residues count along the entry.
UniProt P03186, residues 1-235: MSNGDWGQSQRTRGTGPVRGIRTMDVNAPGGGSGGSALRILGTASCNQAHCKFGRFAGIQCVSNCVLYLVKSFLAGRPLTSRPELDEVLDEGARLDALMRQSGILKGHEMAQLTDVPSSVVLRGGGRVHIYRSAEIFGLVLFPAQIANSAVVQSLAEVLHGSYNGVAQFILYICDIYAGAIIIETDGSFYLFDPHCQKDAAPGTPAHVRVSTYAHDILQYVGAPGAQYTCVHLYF
UniProt P46379: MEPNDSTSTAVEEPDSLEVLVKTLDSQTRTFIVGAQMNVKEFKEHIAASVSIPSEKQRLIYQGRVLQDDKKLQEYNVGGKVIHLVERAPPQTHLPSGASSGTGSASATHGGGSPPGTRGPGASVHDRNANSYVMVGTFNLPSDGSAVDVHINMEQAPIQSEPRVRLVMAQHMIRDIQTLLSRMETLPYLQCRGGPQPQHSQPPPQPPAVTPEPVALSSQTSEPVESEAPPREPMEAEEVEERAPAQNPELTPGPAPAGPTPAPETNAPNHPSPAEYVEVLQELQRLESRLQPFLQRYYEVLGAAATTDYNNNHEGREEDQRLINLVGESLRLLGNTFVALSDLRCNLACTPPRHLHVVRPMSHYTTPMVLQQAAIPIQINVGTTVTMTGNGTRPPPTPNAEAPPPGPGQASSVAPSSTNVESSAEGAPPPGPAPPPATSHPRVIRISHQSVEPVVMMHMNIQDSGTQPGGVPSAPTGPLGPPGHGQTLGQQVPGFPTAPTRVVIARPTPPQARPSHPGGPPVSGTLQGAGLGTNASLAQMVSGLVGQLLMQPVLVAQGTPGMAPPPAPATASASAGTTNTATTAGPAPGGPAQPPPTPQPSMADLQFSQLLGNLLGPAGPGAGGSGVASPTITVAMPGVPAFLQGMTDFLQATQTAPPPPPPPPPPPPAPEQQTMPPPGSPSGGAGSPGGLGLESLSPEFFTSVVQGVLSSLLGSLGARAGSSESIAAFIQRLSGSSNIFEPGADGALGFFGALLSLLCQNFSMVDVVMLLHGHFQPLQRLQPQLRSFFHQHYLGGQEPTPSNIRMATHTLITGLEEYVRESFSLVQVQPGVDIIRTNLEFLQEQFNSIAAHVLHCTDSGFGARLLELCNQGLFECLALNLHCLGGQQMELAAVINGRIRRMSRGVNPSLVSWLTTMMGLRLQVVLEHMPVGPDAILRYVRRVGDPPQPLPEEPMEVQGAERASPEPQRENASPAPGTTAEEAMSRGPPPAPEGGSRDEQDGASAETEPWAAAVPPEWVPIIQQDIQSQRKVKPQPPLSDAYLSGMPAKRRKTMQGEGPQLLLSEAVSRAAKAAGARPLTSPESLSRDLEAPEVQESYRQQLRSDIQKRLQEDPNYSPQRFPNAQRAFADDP
UniProt P00387: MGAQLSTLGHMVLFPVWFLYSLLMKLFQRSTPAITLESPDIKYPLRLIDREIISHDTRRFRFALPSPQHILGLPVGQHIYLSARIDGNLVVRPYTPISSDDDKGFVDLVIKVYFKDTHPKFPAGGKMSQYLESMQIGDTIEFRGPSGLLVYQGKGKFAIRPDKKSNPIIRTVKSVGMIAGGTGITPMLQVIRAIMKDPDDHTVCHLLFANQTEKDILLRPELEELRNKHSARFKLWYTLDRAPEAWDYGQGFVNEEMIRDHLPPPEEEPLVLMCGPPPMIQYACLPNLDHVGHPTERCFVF
UniProt P60468: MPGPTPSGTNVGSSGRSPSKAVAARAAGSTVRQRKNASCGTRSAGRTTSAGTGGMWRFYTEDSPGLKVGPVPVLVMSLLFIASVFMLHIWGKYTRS
UniProt Q04637: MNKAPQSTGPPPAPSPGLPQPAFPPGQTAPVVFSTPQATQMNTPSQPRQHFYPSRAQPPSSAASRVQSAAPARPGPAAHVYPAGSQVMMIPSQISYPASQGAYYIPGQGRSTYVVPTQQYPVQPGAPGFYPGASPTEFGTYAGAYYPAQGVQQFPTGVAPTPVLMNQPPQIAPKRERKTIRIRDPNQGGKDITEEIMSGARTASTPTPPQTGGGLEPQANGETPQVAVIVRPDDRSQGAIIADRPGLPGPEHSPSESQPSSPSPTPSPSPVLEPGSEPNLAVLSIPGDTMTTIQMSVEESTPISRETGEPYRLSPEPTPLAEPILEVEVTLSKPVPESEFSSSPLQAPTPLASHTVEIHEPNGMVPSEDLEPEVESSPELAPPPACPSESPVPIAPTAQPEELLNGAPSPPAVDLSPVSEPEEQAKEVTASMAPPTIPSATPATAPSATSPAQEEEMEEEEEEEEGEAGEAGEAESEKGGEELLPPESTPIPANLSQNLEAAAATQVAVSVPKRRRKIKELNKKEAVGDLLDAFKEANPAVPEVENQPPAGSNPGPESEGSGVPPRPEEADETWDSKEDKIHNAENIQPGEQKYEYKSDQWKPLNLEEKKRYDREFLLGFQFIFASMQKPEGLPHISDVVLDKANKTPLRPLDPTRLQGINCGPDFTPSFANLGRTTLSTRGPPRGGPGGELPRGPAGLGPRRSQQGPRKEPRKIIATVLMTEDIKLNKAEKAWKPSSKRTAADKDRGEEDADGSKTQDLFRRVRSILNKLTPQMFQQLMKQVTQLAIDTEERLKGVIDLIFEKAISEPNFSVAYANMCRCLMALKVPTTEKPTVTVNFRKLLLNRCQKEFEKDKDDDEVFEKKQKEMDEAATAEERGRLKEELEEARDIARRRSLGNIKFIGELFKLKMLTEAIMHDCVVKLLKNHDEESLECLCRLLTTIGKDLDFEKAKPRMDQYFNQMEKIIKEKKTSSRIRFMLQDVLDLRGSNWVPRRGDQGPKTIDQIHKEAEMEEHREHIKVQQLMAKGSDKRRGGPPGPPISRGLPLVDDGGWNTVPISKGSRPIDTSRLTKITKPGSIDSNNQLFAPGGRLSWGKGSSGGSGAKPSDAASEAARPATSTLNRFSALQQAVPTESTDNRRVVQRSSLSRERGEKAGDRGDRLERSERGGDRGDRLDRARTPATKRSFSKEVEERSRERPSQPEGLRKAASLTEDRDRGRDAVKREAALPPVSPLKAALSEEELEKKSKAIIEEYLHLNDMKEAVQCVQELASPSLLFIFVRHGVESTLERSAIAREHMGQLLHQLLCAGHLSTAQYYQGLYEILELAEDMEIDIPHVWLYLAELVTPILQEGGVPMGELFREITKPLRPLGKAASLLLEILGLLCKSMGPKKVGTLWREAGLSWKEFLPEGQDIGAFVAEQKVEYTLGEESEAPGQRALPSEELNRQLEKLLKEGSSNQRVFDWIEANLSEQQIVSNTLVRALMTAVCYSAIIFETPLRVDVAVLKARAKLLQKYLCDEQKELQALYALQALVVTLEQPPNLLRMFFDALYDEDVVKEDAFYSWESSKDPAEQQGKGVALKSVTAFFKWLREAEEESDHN
UniProt Q9BY44: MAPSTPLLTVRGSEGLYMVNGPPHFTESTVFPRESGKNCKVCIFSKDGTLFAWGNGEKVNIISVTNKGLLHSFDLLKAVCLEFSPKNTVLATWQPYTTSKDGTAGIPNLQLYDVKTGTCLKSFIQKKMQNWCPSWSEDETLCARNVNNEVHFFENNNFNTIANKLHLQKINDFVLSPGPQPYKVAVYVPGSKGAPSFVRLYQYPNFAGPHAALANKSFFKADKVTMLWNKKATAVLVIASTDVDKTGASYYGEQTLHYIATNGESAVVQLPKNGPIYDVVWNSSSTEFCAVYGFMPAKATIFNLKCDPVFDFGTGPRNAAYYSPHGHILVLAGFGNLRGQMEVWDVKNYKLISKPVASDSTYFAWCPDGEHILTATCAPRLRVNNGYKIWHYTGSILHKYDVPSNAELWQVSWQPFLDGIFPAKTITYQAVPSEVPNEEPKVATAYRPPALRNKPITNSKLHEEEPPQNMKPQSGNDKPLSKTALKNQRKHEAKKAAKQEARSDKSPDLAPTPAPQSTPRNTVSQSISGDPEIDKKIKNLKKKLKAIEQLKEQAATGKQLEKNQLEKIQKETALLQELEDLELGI
UniProt Q9UGP8: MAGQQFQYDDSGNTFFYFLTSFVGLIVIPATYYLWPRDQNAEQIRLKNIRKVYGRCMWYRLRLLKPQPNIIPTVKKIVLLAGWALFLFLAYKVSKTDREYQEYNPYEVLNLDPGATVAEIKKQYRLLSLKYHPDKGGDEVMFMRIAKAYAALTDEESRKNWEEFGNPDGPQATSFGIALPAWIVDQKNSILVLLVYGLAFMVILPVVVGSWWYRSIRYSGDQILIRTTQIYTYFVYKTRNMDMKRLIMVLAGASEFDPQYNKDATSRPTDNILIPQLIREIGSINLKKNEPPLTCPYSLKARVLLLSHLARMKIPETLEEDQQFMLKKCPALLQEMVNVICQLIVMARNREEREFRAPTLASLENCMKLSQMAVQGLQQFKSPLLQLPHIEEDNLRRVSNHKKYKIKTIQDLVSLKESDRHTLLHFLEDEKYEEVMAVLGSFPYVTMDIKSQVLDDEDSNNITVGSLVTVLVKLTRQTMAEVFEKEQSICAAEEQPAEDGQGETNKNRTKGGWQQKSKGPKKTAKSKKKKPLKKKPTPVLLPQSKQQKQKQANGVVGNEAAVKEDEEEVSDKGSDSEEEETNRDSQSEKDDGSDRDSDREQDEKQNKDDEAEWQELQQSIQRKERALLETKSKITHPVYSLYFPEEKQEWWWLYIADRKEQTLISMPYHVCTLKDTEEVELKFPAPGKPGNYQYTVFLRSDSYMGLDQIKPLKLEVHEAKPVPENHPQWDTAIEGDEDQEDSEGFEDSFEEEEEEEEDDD

Target: FLAG-BPLF1 (vDUB, N-terminal domain of the Epstein-Barr virus large tegument protein BPLF1) (Epstein-Barr virus) (UniProt P03186)
Assay: affinity purification with mass spectrometry

Molecule: BAG6 (BAG cochaperone 6) (from UniProt P46379 1-1132)
- binding: binds

Molecule: CYB5R3 (cytochrome b5 reductase 3), endogenous (from UniProt P00387 1-301) (enzyme)
- binding: binds

Molecule: SEC61B subunit of the SEC61 translocon (from UniProt P60468 1-96)
- binding: binds

Molecule: EIF4G1, endogenous (from UniProt Q04637 1-1599)
- binding: binds

Molecule: EIF2A, endogenous (from UniProt Q9BY44 1-585)
- binding: binds

Molecule: SEC63 (from UniProt Q9UGP8 1-760)
- binding: binds

B1: SRP68 subunit of the signal recognition particle (protein, UniProt Q9UHB9 1-627)
chain: MAAEKQVPGGGGGGGSGGGGGSGGGGSGGGRGAGGEENKENERPSAGSKANKEFGDSLSLEILQIIKESQQQHGLRHGDFQRYRGYCSRRQRRLRKTLNFKMGNRHKFTGKKVTEELLTDNRYLLLVLMDAERAWSYAMQLKQEANTEPRKRFHLLSRLRKAVKHAEELERLCESNRVDAKTKLEAQAYTAYLSGMLRFEHQEWKAAIEAFNKCKTIYEKLASAFTEEQAVLYNQRVEEISPNIRYCAYNIGDQSAINELMQMRLRSGGTEGLLAEKLEALITQTRAKQAATMSEVEWRGRTVPVKIDKVRIFLLGLADNEAAIVQAESEETKERLFESMLSECRDAIQVVREELKPDQKQRDYILEGEPGKVSNLQYLHSYLTYIKLSTAIKRNENMAKGLQRALLQQQPEDDSKRSPRPQDLIRLYDIILQNLVELLQLPGLEEDKAFQKEIGLKTLVFKAYRCFFIAQSYVLVKKWSEALVLYDRVLKYANEVNSDAGAFKNSLKDLPDVQELITQVRSEKCSLQAAAILDANDAHQTETSSSQVKDNKPLVERFETFCLDPSLVTKQANLVHFPPGFQPIPCKPLFFDLALNHVAFPPLEDKLEQKTKSGLTGYIKGIFGFRS
- binding: binds

B2: RPN1 (ribophorin I), endogenous (protein, UniProt P04843 24-607)
chain: ASSEAPPLINEDVKRTVDLSSHLAKVTAEVVLAHLGGGSTSRATSFLLALEPELEARLAHLGVQVKGEDEEENNLEVRETKIKGKSGRFFTVKLPVALDPGAKISVIVETVYTHVLHPYPTQITQSEKQFVVFEGNHYFYSPYPTKTQTMRVKLASRNVESYTKLGNPTRSEDLLDYGPFRDVPAYSQDTFKVHYENNSPFLTITSMTRVIEVSHWGNIAVEENVDLKHTGAVLKGPFSRYDYQRQPDSGISSIRSFKTILPAAAQDVYYRDEIGNVSTSHLLILDDSVEMEIRPRFPLFGGWKTHYIVGYNLPSYEYLYNLGDQYALKMRFVDHVFDEQVIDSLTVKIILPEGAKNIEIDSPYEISRAPDELHYTYLDTFGRPVIVAYKKNLVEQHIQDIVVHYTFNKVLMLQEPLLVVAAFYILFFTVIIYVRLDFSITKDPAAEARMKVACITEQVLTLVNKRIGLYRHFDETVNRYKQSRDISTLNSGKKSLETEHKALTSEIALLQSRLKTEGSDLCDRVSEMQKLDAQVKELVLKSAVEAERLVAGKLKKDTYIENEKLISGKRQELVTKIDHILDAL
- binding: binds

B3: OSTC subunit of the N-oligosaccharyltransferase (OST) complex (protein, UniProt Q9NRP0 1-149)
chain: METLYRVPFLVLECPNLKLKKPPWLHMPSAMTVYALVVVSYFLITGGIIYDVIVEPPSVGSMTDEHGHQRPVAFLAYRVNGQYIMEGLASSFLFTMGGLGFIILDRSNAPNIPKLNRFLLLFIGFVCVLLSFFMARVFMRMKLPGYLMG
- binding: binds

B4: ZNF598 (zink finger protein 598, E3 ubiquitin ligase) (enzyme, UniProt Q86UK7 1-904)
chain: MAAAGGAEGRRAALEAAAAAAPERGGGSCVLCCGDLEATALGRCDHPVCYRCSTKMRVLCEQRYCAVCREELRQVVFGKKLPAFATIPIHQLQHEKKYDIYFADGKVYALYRQLLQHECPRCPELPPFSLFGDLEQHMRRQHELFCCRLCLQHLQIFTYERKWYSRKDLARHRMQGDPDDTSHRGHPLCKFCDERYLDNDELLKHLRRDHYFCHFCDSDGAQDYYSDYAYLREHFREKHFLCEEGRCSTEQFTHAFRTEIDLKAHRTACHSRSRAEARQNRHIDLQFSYAPRHSRRNEGVVGGEDYEEVDRYSRQGRVARAGTRGAQQSRRGSWRYKREEEDREVAAAVRASVAAQQQEEARRSEDQEEGGRPKKEEAAARGPEDPRGPRRSPRTQGEGPGPKETSTNGPVSQEAFSVTGPAAPGCVGVPGALPPPSPKLKDEDFPSLSASTSSSCSTAATPGPVGLALPYAIPARGRSAFQEEDFPALVSSVPKPGTAPTSLVSAWNSSSSSKKVAQPPLSAQATGSGQPTRKAGKGSRGGRKGGPPFTQEEEEDGGPALQELLSTRPTGSVSSTLGLASIQPSKVGKKKKVGSEKPGTTLPQPPPATCPPGALQAPEAPASRAEGPVAVVVNGHTEGPAPARSAPKEPPGLPRPLGSFPCPTPQEDFPALGGPCPPRMPPPPGFSAVVLLKGTPPPPPPGLVPPISKPPPGFSGLLPSPHPACVPSPATTTTTKAPRLLPAPRAYLVPENFRERNLQLIQSIRDFLQSDEARFSEFKSHSGEFRQGLISAAQYYKSCRDLLGENFQKVFNELLVLLPDTAKQQELLSAHTDFCNREKPLSTKSKKNKKSAWQATTQQAGLDCRVCPTCQQVLAHGDASSHQALHAARDDDFPSLQAIARIIT
- binding: binds

B5: SRP72 subunit of the signal recognition particle (protein, UniProt O76094 1-671)
chain: MASGGSGGVSVPALWSEVNRYGQNGDFTRALKTVNKILQINKDDVTALHCKVVCLIQNGSFKEALNVINTHTKVLANNSLSFEKAYCEYRLNRIENALKTIESANQQTDKLKELYGQVLYRLERYDECLAVYRDLVRNSQDDYDEERKTNLSAVVAAQSNWEKVVPENLGLQEGTHELCYNTACALIGQGQLNQAMKILQKAEDLCRRSLSEDTDGTEEDPQAELAIIHGQMAYILQLQGRTEEALQLYNQIIKLKPTDVGLLAVIANNIITINKDQNVFDSKKKVKLTNAEGVEFKLSKKQLQAIEFNKALLAMYTNQAEQCRKISASLQSQSPEHLLPVLIQAAQLCREKQHTKAIELLQEFSDQHPENAAEIKLTMAQLKISQGNISKACLILRSIEELKHKPGMVSALVTMYSHEEDIDSAIEVFTQAIQWYQNHQPKSPAHLSLIREAANFKLKYGRKKEAISDLQQLWKQNPKDIHTLAQLISAYSLVDPEKAKALSKHLPSSDSMSLKVDVEALENSAGATYIRKKGGKVTGDSQPKEQGQGDLKKKKKKKKGKLPKNYDPKVTPDPERWLPMRERSYYRGRKKGKKKDQIGKGTQGATAGASSELDASKTVSSPPTSPRPGSAATVSASTSNIIPPRHQKPAGAPATKKKQQQKKKKGGKGGW
- binding: binds

B6: SRPRB (SRP receptor subunit beta) (protein, UniProt Q9Y5M8 1-271)
chain: MASADSRRVADGGGAGGTFQPYLDTLRQELQQTDPTLLSVVVAVLAVLLTLVFWKLIRSRRSSQRAVLLVGLCDSGKTLLFVRLLTGLYRDTQTSITDSCAVYRVNNNRGNSLTLIDLPGHESLRLQFLERFKSSARAIVFVVDSAAFQREVKDVAEFLYQVLIDSMGLKNTPSFLIACNKQDIAMAKSAKLIQQQLEKELNTLRVTRSAAPSTLDSSSTAPAQLGKKGKEFEFSQLPLKVEFLECSAKGGRGDVGSADIQDLEKWLAKIA
- binding: binds

B7: NOMO3 subunit of the multi-pass translocon/MTP complex (protein, UniProt P69849 32-1222)
chain: SEDIVVGCGGFVKSDVEINYSLIEIKLYTKHGTLKYQTDCAPNNGYFMIPLYDKGDFILKIEPPLGWSFEPTTVELHVDGVSDICTKGGDINFVFTGFSVNGKVLSKGQPLGPAGVQVSLRNTGTEAKIQSTVTQPGGKFAFFKVLPGDYEILATHPTWALKEASTTVRVTNSNANAASPLIVAGYNVSGSVRSDGEPMKGVKFLLFSSLVTKEDVLGCNVSPVPGFQPQDESLVYLCYTVSREDGSFSFYSLPSGGYTVIPFYRGERITFDVAPSRLDFTVEHDSLKIEPVFHVMGFSVTGRVLNGPEGDGVPEAVVTLNNQIKVKTKADGSFRLENITTGTYTIHAQKEHLYFETVTIKIAPNTPQLADIVATGFSVCGQISIIRFPDTVKQMNKYKVVLSSQDKDKSLVTVETDAHGSFCFKANPGTYKVQVMVPEAETRAGLTLKPQTFPLTVTDRPVMDVAFVQFLASVSGKVSCLDTCGDLLVTLQSLSRQGEKRSLQLSGKVNAMTFTFDNVLPGKYKISIMHEDWCWKNKSLEVEVLEDDVSAVEFRQTGYMLRCSLSHAITLEFYQDGNGRENVGIYNLSKGVNRFCLSKPGVYKVTPRSCHRFEQAFYTYDTSSPSILTLTAIRHHVLGTITTDKMMDVTVTIKSSIDSEPALVLGPLKSVQELRREQQLAEIEARRQEREKNGNEEGEERMTKPPVQEMVDELQGPFSYDFSYWARSGEKITVTPSSKELLFYPPSMEAVVSGESCPGKLIEIHGKAGLFLEGQIHPELEGVEIVISEKGASSPLITVFTDDKGAYSVGPLHSDLEYTVTSQKEGYVLTAVEGTIGDFKAYALAGVSFEIKAEDDQPLPGVLLSLSGGLFRSNLLTQDNGILTFSNLSPGQYYFKPMMKEFRFEPSSQMIEVQEGQNLKITITGYRTAYSCYGTVSSLNGEPEQGVAMEAVGQNDCSIYGEDTVTDEEGKFRLRGLLPGCVYHVQLKAEGNDHIERALPHHRVIEVGNNDIDDVNIIVFRQINQFDLSGNVITSSEYLPTLWVKLYKSENLDNPIQTVSLGQSLFFHFPPLLRDGENYVVLLDSTLPRSQYDYILPQVSFTAVGYHKHITLIFNPTRKLPEQDIAQGSYIALPLTLLVLLAGYNHDKLIPLLLQLTSRLQGVGALGQAASDNSGPEDAKRQAKKQKTRRT
- binding: binds

B8: EMC1 subunit of the endoplasmic reticulum membrane protein complex/EMC (protein, UniProt Q8N766 23-993)
chain: YEDQVGKFDWRQQYVGKVKFASLEFSPGSKKLVVATEKNVIAALNSRTGEILWRHVDKGTAEGAVDAMLLHGQDVITVSNGGRIMRSWETNIGGLNWEITLDSGSFQALGLVGLQESVRYIAVLKKTTLALHHLSSGHLKWVEHLPESDSIHYQMVYSYGSGVVWALGVVPFSHVNIVKFNVEDGEIVQQVRVSTPWLQHLSGACGVVDEAVLVCPDPSSRSLQTLALETEWELRQIPLQSLDLEFGSGFQPRVLPTQPNPVDASRAQFFLHLSPSHYALLQYHYGTLSLLKNFPQTALVSFATTGEKTVAAVMACRNEVQKSSSSEDGSMGSFSEKSSSKDSLACFNQTYTINLYLVETGRRLLDTTITFSLEQSGTRPERLYIQVFLKKDDSVGYRALVQTEDHLLLFLQQLAGKVVLWSREESLAEVVCLEMVDLPLTGAQAELEGEFGKKADGLLGMFLKRLSSQLILLQAWTSHLWKMFYDARKPRSQIKNEINIDTLARDEFNLQKMMVMVTASGKLFGIESSSGTILWKQYLPNVKPDSSFKLMVQRTTAHFPHPPQCTLLVKDKESGMSSLYVFNPIFGKWSQVAPPVLKRPILQSLLLPVMDQDYAKVLLLIDDEYKVTAFPATRNVLRQLHELAPSIFFYLVDAEQGRLCGYRLRKDLTTELSWELTIPPEVQRIVKVKGKRSSEHVHSQGRVMGDRSVLYKSLNPNLLAVVTESTDAHHERTFIGIFLIDGVTGRIIHSSVQKKAKGPVHIVHSENWVVYQYWNTKARRNEFTVLELYEGTEQYNATAFSSLDRPQLPQVLQQSYIFPSSISAMEATITERGITSRHLLIGLPSGAILSLPKALLDPRRPEIPTEQSREENLIPYSPDVQIHAERFINYNQTVSRMRGIYTAPSGLESTCLVVAYGLDIYQTRVYPSKQFDVLKDDYDYVLISSVLFGLVFATMITKRLAQVKLLNRAWR
- binding: binds

No constants are given. Whether binding was seen depends on the method and setting. Binding seen in cells or lysates may run through a third protein. Here binding means that the protein was enriched with, or labelled near, the bait; the list need not be complete.
